In the supplement of paper PMC10849652:
Some of the results follow. Residues, ends and D or L forms follow the SMILES beside them. *: point of attachment. Cbz = O=C(OCc1ccccc1)*

By UniProt entry, the sequences of proteins in these tests, tags left out. Where a name states a change or a piece, a line headed by the entry shows the natural chain unless it says otherwise.
UniProt Q9NP31, whole entry, looked up: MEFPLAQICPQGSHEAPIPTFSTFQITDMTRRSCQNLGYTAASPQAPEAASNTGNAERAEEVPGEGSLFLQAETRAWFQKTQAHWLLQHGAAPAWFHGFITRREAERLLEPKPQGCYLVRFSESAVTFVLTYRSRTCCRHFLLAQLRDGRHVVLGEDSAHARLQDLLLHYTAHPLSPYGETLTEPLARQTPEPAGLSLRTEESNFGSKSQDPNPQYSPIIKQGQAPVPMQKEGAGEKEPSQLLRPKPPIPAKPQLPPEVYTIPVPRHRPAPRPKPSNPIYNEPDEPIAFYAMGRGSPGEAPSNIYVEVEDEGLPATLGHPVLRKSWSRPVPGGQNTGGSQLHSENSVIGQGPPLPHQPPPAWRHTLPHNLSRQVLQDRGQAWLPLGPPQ
UniProt O75563, whole entry, looked up: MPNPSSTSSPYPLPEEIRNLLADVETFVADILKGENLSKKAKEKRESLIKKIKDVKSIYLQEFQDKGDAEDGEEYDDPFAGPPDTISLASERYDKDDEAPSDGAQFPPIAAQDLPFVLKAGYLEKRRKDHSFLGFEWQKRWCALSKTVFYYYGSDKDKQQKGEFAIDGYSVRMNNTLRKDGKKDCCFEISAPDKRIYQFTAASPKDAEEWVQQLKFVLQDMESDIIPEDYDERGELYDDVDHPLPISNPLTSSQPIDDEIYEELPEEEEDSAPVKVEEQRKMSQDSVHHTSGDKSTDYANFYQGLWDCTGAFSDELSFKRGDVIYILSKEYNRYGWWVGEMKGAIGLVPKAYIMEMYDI
UniProt Q8NC51: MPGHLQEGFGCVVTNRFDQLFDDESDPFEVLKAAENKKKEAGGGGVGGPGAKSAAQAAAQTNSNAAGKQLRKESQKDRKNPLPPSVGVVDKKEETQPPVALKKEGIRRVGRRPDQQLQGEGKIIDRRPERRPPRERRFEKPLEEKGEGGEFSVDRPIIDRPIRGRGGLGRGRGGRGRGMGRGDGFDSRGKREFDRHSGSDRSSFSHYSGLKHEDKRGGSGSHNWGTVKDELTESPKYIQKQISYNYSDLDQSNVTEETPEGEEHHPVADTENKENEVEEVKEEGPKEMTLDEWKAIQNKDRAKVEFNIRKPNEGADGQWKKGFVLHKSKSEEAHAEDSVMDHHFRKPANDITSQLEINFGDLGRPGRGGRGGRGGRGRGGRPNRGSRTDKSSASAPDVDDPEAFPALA
UniProt Q8IX90, whole entry, looked up: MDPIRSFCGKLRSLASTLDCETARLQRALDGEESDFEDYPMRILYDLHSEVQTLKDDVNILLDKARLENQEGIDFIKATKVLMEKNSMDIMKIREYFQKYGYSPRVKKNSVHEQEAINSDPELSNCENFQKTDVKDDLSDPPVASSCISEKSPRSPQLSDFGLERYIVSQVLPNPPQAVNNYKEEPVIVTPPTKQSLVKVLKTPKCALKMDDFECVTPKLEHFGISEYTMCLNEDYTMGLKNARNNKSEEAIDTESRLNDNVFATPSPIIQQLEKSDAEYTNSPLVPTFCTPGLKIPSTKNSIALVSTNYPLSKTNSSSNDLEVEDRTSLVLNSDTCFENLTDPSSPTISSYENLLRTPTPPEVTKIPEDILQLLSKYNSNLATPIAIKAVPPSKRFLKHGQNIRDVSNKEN
UniProt P60059: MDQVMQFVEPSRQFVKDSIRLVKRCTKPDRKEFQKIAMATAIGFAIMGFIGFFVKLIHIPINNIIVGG
UniProt Q96LD8: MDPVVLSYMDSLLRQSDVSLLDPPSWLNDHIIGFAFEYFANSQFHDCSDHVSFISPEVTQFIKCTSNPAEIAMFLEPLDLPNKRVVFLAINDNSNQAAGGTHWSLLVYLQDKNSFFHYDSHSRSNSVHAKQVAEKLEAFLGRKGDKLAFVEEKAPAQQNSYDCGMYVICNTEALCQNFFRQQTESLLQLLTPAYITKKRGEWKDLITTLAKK
UniProt P05546: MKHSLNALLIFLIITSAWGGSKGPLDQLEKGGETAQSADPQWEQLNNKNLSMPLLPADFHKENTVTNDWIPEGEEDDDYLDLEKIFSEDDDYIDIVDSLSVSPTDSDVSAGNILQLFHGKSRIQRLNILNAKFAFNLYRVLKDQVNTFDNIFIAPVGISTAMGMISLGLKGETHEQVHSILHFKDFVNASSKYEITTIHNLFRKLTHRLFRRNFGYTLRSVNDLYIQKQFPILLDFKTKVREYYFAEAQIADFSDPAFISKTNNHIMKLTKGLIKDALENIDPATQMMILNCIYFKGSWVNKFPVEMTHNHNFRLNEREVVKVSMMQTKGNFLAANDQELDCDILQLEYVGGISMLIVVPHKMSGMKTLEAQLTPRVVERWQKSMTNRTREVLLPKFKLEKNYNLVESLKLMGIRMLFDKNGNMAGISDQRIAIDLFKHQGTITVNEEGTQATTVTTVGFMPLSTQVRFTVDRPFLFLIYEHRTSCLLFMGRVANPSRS
UniProt Q9Y6P5: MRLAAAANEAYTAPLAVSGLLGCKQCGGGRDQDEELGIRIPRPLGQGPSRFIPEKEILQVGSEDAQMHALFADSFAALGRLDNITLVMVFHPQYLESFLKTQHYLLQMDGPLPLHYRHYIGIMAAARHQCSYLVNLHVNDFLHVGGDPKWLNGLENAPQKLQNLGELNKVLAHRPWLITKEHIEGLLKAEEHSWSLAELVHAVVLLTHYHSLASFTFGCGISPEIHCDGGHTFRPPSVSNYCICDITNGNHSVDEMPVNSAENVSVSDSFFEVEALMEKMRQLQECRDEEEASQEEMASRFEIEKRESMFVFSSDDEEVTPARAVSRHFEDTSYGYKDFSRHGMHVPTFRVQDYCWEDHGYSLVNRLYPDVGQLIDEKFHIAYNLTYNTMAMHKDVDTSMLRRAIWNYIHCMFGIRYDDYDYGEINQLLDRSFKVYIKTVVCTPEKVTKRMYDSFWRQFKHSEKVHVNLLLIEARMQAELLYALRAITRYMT

Experiments:
Assay in all cases: log2 fold change, soluble protein after heating vs DMSO (PISA); higher = thermal stabilisation; K562 cells, 10 uM, 30 min; active = over 0.2 and 3.5 SD of the protein, either way, in both replicates (recomputed)
[1] = compound: C1COCCN1CCN2C3=CC=CC=C3N=C2NC(=O)C4=CC(=CC=C4)[N+](=O)[O-] [IRAK-1-4 Inhibitor I]
Outline: (§1)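 K562 cells at 2×10^6 cells/mL were exposed to 10 μM compound for 30 min, then aliquots were heated for 3 min across 48°C-58°C, pooled, and extracted in PBS containing 0.5% NP-40 at 4°C. The supernatant after 21,000xg for 90 min was taken as soluble protein and measured by TMTpro 16plex LC-MS/MS with channel sums equalised. Thermal stability is reported relative to control samples, with values from duplicates. Fold changes are given on a log2 scale.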

[2] = compound: CC(=O)c1cnc2ccc(-c3cc(Cl)c(O)c(Cl)c3)nc2c1N[C@H]1CC[C@H](CN(C)C)CC1
Outline: as §1

[3] = compound: CC(C)C1=C2N=C(C=C(N2N=C1)NCC3=CC=CC=C3)NCCCCCCN
Outline: as §1

[4] = compound: CC(C)N(C[C@H]1O[C@@H](n2cnc3c(N)ncnc32)[C@H](O)[C@@H]1O)[C@H]1C[C@@H](CCc2nc3cc(C(C)(C)C)ccc3[nH]2)C1 [pinometostat]
Outline: as §1

[5] = compound: CC1=C(C(CC(=O)N1)C2=CC=C(C=C2)C(F)(F)F)C(=O)NC3=C(C=C4C(=C3)C=NN4)F
Outline: as §1

[6] = compound: CC(C)(C)Cn1c(N)nc2ccc(-c3[nH]c(C(C)(C)C)nc3-c3ccc(F)cc3)nc21 [ralimetinib]
Outline: as §1

[7] = compound: CC(C)C[C@@H](C=O)NC(=O)[C@H](CC(C)C)NC(=O)[C@H](CC(C)C)NC(=O)OCc1ccccc1
Outline: as §1

[8] = compound: CC1=C(C2=C(C=C1)C(=O)C3=CC=CC=C3N2CCCN)C
Outline: as §1

[9] = compound: C=CC(=O)N1CCC[C@@H](n2nc(-c3ccc(Oc4ccccc4)cc3)c3c(N)ncnc32)C1 [ibrutinib]
Outline: as §1

[10] = compound: CC(C)(O)CC(=O)NCCn1ccc2ncnc(Nc3ccc(Oc4cccc(C(F)(F)F)c4)c(Cl)c3)c21
Outline: as §1

Measured: log2 fold change

SH2D2A isoform 2 (UniProt Q9NP31)
inactive: [1] 0.003 | [2] -0.035 | [3] 0.077 | [4] 0.053 | [5] -0.034

SKAP2 (UniProt O75563)
inactive: [1] -0.067 | [2] -0.061 | [6] -0.011 | [3] -0.133 | [7] 0.069 | [4] 0.042 | [8] -0.092

SERBP1 isoform 3 (UniProt Q8NC51)
inactive: [9] 0.103 | [2] 0.074 | [6] 0.024 | [10] 0.282 | [3] 0 | [7] 0.032 | [5] 0.038 | [8] -0.079

SKA3 (UniProt Q8IX90)
inactive: [1] -0.065 | [9] 0.039 | [6] 0.142 | [10] 0.02 | [3] 0.031 | [7] 0.056 | [4] 0.254 | [5] 0.062 | [8] -0.077

SEC61G (UniProt P60059)
inactive: [1] 0.011 | [9] 0.031 | [6] -0.091 | [10] -0.208 | [3] 0.25 | [7] 0.039 | [4] -0.012 | [5] -0.089

SENP8 (UniProt Q96LD8)
inactive: [1] -0.189 | [4] -0.172 | [5] 0.08

SEPTIN5 (UniProt G3XAH0)
inactive: [9] 0.018 | [2] 0.123 | [6] -0.056 | [10] -0.133 | [3] 0.092 | [7] -0.009 | [8] 0.027

SERPIND1 (UniProt P05546)
inactive: [1] -0.022 | [10] 0.184 | [3] 0.218 | [4] -0.133 | [5] -0.486

SESN1 isoform 2 (UniProt Q9Y6P5)
inactive: [1] -0.007 | [4] 0.001 | [8] 0.06

SETDB1 (UniProt Q15047)
inactive: [1] -0.017 | [2] -0.028 | [6] 0.171 | [10] -0.358 | [3] 0.033 | [7] -0.012 | [4] -0.132 | [5] 0.027 | [8] 0.129
